Source: PMC8611983
These are yes or no findings as the source states them, for the method shown. Binding seen in cells or lysates may run through a third protein. Some entries that bind do so weakly or less than the wild type.

Amino acid sequences for entries named in this document (tags omitted). A change or cut given only in a name is not applied to a line headed by its entry.
UniProt Q8C796: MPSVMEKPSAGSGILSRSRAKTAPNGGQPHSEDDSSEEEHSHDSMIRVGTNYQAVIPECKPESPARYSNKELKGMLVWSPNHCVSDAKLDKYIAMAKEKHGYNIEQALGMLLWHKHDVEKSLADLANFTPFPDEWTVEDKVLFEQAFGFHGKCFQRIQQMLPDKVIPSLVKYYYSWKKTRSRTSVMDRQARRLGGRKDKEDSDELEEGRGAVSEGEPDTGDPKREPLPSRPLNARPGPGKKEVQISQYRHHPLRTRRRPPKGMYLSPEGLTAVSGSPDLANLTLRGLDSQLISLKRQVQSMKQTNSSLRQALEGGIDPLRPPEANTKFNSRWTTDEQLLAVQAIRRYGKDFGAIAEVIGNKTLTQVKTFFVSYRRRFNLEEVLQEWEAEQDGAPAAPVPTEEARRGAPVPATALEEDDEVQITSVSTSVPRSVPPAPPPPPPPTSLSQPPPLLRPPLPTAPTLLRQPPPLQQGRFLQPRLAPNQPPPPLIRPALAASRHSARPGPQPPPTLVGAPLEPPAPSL
UniProt Q8IZ40: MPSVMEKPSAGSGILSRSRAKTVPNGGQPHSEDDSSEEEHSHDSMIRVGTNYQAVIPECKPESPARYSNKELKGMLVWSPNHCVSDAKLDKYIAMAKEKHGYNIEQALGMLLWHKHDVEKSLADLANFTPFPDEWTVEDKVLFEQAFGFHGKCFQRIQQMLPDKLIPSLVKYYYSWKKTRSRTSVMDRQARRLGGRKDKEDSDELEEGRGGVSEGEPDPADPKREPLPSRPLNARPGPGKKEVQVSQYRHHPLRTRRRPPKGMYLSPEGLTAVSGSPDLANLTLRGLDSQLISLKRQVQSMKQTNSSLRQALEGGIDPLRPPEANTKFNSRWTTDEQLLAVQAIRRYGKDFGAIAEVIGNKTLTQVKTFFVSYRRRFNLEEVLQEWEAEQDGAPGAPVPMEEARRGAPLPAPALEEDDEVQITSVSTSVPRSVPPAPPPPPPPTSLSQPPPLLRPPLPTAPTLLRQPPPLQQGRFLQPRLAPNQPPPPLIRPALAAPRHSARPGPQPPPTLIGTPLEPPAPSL
UniProt Q61686: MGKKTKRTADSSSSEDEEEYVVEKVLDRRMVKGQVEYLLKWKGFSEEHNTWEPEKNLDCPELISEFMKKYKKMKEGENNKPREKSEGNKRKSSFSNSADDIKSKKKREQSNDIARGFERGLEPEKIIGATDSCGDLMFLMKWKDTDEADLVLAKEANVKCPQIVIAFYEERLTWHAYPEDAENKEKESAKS
UniProt Q9QX47: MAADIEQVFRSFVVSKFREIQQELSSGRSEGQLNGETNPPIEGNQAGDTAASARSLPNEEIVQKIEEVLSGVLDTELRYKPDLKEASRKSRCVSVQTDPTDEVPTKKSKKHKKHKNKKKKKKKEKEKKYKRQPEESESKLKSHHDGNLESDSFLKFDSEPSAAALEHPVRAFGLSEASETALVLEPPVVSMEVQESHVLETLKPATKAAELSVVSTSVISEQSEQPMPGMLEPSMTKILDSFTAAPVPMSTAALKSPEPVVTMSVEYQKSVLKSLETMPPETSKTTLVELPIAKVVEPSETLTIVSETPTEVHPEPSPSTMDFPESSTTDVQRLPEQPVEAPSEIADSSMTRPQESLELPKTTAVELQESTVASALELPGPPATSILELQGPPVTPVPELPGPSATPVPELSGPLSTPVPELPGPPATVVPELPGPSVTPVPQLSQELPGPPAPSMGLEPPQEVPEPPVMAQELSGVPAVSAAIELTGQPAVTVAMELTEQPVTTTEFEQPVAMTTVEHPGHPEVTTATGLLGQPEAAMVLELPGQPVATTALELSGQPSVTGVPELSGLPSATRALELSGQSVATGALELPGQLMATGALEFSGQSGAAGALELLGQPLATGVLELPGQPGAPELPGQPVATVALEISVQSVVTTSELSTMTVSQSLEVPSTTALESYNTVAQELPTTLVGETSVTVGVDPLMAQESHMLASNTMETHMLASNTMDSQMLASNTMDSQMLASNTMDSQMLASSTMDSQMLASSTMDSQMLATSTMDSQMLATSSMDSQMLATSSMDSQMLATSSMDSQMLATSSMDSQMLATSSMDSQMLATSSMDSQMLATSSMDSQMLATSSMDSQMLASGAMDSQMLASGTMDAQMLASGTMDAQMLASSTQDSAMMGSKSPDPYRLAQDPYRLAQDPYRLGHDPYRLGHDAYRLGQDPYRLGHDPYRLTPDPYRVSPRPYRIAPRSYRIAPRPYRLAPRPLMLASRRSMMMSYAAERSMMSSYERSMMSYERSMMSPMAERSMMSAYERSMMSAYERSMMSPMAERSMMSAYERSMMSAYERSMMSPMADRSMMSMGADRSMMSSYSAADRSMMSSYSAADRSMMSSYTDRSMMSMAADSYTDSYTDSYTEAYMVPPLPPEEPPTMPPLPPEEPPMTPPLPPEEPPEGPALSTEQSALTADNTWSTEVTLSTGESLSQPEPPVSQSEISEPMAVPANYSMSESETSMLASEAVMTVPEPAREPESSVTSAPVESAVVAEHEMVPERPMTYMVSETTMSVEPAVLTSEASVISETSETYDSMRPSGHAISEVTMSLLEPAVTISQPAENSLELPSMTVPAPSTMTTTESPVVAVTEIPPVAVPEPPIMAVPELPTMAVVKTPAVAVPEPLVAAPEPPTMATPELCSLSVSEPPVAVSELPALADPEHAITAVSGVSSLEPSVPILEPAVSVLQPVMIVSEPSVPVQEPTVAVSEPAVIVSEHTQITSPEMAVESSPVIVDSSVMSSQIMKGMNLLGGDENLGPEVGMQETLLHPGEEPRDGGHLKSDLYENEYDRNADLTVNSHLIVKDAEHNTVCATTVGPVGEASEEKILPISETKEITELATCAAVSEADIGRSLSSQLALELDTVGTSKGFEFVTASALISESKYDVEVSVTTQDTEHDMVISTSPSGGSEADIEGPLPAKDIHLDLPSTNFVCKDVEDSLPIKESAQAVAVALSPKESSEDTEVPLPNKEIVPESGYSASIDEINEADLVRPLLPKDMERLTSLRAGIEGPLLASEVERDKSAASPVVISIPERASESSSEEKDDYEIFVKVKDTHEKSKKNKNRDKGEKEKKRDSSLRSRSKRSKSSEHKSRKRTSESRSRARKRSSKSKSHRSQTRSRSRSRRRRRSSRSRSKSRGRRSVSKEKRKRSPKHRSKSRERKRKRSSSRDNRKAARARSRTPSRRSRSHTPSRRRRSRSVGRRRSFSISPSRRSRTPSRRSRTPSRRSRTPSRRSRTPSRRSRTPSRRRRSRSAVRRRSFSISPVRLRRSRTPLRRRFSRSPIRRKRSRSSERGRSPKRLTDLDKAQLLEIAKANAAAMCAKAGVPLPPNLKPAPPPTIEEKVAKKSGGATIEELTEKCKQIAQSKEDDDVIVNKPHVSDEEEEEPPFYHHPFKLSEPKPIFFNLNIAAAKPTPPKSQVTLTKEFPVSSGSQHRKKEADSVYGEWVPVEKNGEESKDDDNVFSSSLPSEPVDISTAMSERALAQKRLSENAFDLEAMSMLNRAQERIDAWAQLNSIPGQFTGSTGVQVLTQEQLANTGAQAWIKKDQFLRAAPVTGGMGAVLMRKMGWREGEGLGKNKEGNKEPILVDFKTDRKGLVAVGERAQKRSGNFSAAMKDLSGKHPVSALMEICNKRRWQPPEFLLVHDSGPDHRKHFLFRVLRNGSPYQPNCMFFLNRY
UniProt Q8BTI8: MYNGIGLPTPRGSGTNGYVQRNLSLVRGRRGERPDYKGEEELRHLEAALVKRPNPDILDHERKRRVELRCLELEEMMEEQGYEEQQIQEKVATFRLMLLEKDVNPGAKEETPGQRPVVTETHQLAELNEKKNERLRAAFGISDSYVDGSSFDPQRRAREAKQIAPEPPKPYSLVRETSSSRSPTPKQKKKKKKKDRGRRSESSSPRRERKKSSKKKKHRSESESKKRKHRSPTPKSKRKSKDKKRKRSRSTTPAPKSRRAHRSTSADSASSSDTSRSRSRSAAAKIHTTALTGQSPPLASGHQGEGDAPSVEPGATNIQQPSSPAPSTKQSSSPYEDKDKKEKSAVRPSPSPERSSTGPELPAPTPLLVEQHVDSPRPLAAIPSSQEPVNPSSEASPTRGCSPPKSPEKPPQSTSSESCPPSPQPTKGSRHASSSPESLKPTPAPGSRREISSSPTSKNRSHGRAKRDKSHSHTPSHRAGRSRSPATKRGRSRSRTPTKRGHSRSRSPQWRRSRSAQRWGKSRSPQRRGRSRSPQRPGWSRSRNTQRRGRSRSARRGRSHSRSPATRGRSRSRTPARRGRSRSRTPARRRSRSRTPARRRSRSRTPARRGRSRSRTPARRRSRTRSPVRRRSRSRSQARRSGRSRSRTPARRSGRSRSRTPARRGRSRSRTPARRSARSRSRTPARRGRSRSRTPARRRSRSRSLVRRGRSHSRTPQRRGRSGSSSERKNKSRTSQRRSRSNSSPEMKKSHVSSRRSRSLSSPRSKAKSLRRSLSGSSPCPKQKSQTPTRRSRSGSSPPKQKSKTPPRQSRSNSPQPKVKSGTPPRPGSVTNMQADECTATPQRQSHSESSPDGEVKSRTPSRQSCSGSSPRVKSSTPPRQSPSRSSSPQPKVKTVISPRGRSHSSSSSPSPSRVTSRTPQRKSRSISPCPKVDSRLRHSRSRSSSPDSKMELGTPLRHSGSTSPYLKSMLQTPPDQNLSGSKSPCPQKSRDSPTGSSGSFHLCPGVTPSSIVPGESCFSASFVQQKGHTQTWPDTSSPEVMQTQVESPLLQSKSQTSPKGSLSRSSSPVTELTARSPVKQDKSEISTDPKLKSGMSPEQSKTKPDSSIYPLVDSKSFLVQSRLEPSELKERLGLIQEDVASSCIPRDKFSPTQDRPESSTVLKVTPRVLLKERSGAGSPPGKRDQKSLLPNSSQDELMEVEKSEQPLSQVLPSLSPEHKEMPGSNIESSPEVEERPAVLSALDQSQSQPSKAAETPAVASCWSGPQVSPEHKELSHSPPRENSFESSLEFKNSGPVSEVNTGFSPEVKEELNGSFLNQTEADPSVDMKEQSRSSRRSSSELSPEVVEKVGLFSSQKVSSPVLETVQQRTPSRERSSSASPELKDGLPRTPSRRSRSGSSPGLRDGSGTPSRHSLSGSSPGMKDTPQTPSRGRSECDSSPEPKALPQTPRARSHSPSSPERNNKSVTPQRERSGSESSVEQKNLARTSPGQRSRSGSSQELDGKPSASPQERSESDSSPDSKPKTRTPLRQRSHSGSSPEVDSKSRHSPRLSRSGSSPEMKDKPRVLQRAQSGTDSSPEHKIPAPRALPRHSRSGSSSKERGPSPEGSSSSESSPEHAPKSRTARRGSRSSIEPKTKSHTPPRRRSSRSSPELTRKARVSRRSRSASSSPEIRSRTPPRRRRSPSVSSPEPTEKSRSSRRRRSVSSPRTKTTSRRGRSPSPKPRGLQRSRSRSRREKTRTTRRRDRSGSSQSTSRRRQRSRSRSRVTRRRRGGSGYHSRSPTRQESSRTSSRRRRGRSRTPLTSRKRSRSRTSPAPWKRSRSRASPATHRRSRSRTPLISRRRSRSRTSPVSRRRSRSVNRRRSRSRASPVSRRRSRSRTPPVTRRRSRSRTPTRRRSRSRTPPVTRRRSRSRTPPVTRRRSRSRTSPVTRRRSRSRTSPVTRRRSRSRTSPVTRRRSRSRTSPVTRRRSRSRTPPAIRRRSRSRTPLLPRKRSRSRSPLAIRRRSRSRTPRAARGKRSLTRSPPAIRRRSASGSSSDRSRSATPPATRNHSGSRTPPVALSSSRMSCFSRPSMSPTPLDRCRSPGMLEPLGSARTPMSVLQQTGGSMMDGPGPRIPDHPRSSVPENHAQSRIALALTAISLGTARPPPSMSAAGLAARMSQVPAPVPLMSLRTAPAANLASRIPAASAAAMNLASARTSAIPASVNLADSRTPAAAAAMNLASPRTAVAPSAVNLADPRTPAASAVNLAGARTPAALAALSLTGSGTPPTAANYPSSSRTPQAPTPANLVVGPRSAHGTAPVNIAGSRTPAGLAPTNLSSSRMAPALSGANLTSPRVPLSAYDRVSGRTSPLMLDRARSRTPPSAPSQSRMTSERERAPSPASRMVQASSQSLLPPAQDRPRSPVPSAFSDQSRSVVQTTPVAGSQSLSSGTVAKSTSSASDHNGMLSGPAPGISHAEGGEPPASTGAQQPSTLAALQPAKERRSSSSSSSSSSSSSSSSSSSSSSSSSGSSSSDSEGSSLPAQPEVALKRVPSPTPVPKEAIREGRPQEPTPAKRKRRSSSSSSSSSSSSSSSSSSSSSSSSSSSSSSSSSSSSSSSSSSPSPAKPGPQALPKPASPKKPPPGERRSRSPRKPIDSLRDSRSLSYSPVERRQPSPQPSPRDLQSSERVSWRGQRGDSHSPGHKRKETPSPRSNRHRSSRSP

Tests used:
[1] = molecular target: REST corepressor 2 (RCOR2) (mouse (endogenous in HT22 and N2A)) (UniProt Q8C796); assay: co-IP; anti-RCOR2 antibody immunoprecipitation from nuclear soluble fractions enriched in RCOR2 (HT22 fractionation); IgG as specificity control; Western blot
[2] = molecular target: REST corepressor 2 (RCOR2) (mouse (endogenous in HT22 and N2A)) (UniProt Q8C796); assay: co-IP; anti-RCOR2 antibody immunoprecipitation from N2A total cell extract; 50 mM Tris-HCl pH 7.5, 150 mM NaCl, 0.5% sodium deoxycholate, 1% NP40, sonicated; IgG control; Western blot
[3] = molecular target: REST corepressor 2 (RCOR2) (mouse (endogenous in HT22 and N2A)) (UniProt Q8C796); assay: co-IP; anti-RCOR2 antibody immunoprecipitation from HT22 total cell extract; 50 mM Tris-HCl pH 7.5, 150 mM NaCl, 0.5% sodium deoxycholate, 1% NP40, sonicated; IgG control; Western blot
[4] = molecular target: REST corepressor 2 (RCOR2) (human (endogenous in HEK293T)) (UniProt Q8IZ40); assay: co-IP; RCOR2 immunoprecipitation with HEK293T cells as input; 50 mM Tris-HCl pH 7.5, 150 mM NaCl, 0.5% sodium deoxycholate, 1% NP40, sonicated; Western blot

“Heterochromatin protein 1α (from UniProt Q61686 1-191)” was tested, and the binding [1] was “no binding”.

With SON (from UniProt Q9QX47 1-2444) the binding [1] was “binds”.

For “serine arginine repetitive matrix protein 2 (SRRM2) (from UniProt Q8BTI8 1-2703)”, the binding [2] was “binds”.

B1: serine and arginine splicing factor 7 (SRSF7) (protein, UniProt Q8BL97 1-267)
chain: MRSSARGRPLQAATAFFLSLFFFLRRFERGFWLWGGDSETKVYVGNLGTGAGKGELERAFSYYGPLRTVWIARNPPGFAFVEFEDPRDAEDAVRGLDGKVICGSRVRVELSTGMPRRSRFDRPPARRPFDPNDRCYECGEKGHYAYDCHRYSRRRRSRSRSRSHSRSRGRRYSRSRSRSRGRRSRSASPRRSRSVSLRRSRSASLRRSRSGSIIGSRYFQSRSRSRSRSRSISRPRSSRSKSRSPSPKRSRSPSGSPHRSASPERMD
B1 was tested, and the binding [3] was “binds”.

B2: serine and arginine splicing factor 7 (SRSF7) (protein, UniProt Q16629 1-238)
chain: MSRYGRYGGETKVYVGNLGTGAGKGELERAFSYYGPLRTVWIARNPPGFAFVEFEDPRDAEDAVRGLDGKVICGSRVRVELSTGMPRRSRFDRPPARRPFDPNDRCYECGEKGHYAYDCHRYSRRRRSRSRSRSHSRSRGRRYSRSRSRSRGRRSRSASPRRSRSISLRRSRSASLRRSRSGSIKGSRYFQSPSRSRSRSRSISRPRSSRSKSRSPSPKRSRSPSGSPRRSASPERMD
B2 was tested, and the binding [4] was “binds”.
